No constants are given. Whether binding was seen depends on the method and setting. Binding seen in cells or lysates may run through a third protein. Here binding means that the protein was enriched with, or labelled near, the bait; the list need not be complete. For some assays here: A no says only that the protein was not detected with the bait. Blank lines part the entries; values can stand above or below the molecule they belong to.
How the values were obtained:
[1] = biological target: LINE-1 (L1) ORF1p (mouse (endogenous in Mael^-/- testis)) (UniProt P11260); test: affinity purification with mass spectrometry; anti-ORF1p antibody (Abcam ab216324) coupled to Dynabeads M-270 Epoxy, total Mael^-/- testicular extracts, 2.5 h at 4°C, washes in 100 mM KCl, 20 mM Tris-HCl pH 8.0, 0.3% NP-40 (higher stringency: 300 mM KCl); beads only or isotype IgG as negative controls; LC/MS/MS
[2] = biological target: LINE-1 (L1) ORF1p (mouse (endogenous in Mael^-/- testis)) (UniProt P11260); test: as above; remark: listed apart in the source
[3] = biological target: LINE-1 (L1) ORF1p (mouse (endogenous in Mael^-/- testis)) (UniProt P11260); test: affinity purification with mass spectrometry; as a1, but Mael^-/- testis extract treated before immunoprecipitation with RNase A (10 μg/ml), RNase T1 (25 U/ml) and RNase I (50 U/ml), 30 min at room temperature

Protein sequences, listed by entry. Tags and fused reporters are not part of them.
UniProt P11260: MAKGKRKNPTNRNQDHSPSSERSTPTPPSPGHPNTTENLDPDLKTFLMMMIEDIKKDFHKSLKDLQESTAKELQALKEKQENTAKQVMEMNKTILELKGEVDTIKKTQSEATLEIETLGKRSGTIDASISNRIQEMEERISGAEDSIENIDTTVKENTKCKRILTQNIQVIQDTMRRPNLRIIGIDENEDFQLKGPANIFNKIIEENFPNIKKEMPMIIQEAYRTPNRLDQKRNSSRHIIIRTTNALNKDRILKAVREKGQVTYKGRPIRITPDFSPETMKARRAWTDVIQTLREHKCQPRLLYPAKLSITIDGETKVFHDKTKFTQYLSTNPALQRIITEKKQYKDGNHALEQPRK
UniProt Q6ZQ08: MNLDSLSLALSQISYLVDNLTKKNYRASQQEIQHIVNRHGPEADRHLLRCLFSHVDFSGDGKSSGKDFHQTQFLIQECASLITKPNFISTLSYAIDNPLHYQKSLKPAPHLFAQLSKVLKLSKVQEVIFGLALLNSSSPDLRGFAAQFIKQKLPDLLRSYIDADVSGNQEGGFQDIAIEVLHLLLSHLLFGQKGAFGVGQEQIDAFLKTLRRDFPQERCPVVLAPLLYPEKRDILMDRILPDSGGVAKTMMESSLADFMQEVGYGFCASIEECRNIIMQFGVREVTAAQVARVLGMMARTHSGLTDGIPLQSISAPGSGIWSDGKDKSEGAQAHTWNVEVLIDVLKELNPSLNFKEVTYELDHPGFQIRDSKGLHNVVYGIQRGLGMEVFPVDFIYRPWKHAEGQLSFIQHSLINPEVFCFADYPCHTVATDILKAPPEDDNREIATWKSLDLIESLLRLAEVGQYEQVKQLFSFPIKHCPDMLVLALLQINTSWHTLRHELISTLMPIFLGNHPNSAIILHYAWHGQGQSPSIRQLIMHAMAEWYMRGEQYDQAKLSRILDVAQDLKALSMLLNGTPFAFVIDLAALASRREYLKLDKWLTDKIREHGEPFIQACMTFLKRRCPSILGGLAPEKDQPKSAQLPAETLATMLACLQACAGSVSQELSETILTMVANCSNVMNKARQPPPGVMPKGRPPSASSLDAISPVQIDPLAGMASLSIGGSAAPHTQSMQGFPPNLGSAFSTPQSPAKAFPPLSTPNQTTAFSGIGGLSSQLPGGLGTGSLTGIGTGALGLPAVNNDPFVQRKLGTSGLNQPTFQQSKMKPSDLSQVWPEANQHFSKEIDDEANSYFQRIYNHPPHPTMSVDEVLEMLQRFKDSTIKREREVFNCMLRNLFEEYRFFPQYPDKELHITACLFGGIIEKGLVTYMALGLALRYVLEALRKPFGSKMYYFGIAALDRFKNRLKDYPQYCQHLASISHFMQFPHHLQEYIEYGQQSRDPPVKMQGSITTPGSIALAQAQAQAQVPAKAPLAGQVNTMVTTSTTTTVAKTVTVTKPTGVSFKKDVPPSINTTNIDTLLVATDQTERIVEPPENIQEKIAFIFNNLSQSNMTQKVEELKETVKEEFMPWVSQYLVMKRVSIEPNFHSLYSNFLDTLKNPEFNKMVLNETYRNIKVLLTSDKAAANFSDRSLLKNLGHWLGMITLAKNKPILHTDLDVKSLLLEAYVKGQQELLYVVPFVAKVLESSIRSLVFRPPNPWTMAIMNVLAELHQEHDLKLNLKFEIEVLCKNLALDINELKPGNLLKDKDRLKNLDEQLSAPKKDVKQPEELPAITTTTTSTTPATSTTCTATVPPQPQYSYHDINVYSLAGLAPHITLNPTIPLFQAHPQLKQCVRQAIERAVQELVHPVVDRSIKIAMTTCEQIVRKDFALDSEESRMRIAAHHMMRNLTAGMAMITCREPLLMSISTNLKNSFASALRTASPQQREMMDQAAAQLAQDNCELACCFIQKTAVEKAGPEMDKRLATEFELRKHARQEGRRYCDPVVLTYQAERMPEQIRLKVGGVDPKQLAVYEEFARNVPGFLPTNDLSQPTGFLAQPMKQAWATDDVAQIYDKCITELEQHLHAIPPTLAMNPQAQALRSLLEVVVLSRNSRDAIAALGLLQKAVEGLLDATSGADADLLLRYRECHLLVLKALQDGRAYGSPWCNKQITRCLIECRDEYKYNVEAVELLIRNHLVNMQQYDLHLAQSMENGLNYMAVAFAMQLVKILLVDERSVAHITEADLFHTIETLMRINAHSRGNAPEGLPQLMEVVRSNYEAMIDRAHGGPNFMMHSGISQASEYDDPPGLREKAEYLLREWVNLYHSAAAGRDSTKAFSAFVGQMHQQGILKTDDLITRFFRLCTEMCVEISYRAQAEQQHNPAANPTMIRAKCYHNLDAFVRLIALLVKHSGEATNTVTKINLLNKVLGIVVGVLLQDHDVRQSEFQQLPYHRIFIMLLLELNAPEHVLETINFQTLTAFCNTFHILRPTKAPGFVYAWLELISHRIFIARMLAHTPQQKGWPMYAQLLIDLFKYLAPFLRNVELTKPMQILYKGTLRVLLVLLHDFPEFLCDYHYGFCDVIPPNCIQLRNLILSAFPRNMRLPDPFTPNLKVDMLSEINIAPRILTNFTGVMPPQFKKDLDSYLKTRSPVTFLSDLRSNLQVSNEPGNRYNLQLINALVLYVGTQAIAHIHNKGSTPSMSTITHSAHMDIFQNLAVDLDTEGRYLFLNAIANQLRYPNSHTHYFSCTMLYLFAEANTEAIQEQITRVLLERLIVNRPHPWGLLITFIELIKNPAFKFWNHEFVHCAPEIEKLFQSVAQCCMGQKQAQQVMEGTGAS
UniProt Q60809: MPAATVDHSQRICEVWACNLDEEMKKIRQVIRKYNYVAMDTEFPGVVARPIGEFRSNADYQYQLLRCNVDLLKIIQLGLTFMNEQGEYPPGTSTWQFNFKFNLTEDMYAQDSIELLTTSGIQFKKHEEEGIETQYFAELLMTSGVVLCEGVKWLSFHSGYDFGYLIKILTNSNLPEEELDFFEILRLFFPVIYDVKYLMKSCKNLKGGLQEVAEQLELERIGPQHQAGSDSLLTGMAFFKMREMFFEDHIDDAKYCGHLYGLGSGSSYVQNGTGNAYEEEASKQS
UniProt P63073: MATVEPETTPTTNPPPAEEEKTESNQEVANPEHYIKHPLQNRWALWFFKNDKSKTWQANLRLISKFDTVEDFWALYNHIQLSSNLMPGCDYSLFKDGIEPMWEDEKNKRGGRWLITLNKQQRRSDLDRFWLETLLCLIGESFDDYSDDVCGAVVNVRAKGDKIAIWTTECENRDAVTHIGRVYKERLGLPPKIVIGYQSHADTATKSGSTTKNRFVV
UniProt Q61584: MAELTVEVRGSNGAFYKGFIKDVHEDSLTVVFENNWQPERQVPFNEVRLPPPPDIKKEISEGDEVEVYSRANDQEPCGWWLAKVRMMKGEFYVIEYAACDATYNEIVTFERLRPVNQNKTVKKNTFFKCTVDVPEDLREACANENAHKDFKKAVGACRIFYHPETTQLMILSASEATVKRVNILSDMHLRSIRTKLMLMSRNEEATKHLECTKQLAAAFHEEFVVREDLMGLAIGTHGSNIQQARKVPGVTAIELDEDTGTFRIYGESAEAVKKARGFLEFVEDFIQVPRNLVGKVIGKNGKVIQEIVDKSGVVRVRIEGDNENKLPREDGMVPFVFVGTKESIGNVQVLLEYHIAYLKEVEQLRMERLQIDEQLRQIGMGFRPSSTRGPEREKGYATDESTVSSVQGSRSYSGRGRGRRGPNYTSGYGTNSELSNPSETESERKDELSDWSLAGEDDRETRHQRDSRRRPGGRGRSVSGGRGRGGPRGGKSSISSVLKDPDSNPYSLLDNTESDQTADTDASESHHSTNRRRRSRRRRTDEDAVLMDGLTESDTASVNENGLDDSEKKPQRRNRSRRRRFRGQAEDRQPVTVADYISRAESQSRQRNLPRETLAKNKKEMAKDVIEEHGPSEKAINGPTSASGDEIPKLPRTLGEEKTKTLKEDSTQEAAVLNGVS

- binding [1]: binds
Molecule: CNOT6L (from UniProt Q8VEG6 1-555)

- binding [1]: no binding
Molecule: CNOT1 (from UniProt Q6ZQ08 1-2375)

- binding [1]: binds
Molecule: CCR4-NOT complex subunit CNOT7 (from UniProt Q60809 1-285)

- binding [1]: binds
Molecule: eIF4E (from UniProt P63073 1-217)

- binding [1]: binds
Molecule: FXR1 (from UniProt Q61584 1-677)

- binding [2]: binds
B1: CAPRIN1 (protein, UniProt Q60865 1-707)
chain: MPSATSHSGSGSKSSGPPPPSGSSGSEAAAGAAAPASQHPATGTGAVQTEAMKQILGVIDKKLRNLEKKKGKLDDYQERMNKGERLNQDQLDAVSKYQEVTNNLEFAKELQRSFMALSQDIQKTIKKTARREQLMREEAEQKRLKTVLELQYVLDKLGDDDVRTDLKQGLSGVPILSEEELSLLDEFYKLVDPERDMSLRLNEQYEHASIHLWDLLEGKEKPVCGTTYKALKEIVERVFQSNYFDSTHNHQNGLCEEEEAASAPTVEDQVAEAEPEPAEEYTEQSEVESTEYVNRQFMAETQFSSGEKEQVDEWTVETVEVVNSLQQQPQAASPSVPEPHSLTPVAQSDPLVRRQRVQDLMAQMQGPYNFIQDSMLDFENQTLDPAIVSAQPMNPTQNMDMPQLVCPQVHSESRLAQSNQVPVQPEATQVPLVSSTSEGYTASQPLYQPSHATEQRPQKEPMDQIQATISLNTDQTTASSSLPAASQPQVFQAGTSKPLHSSGINVNAAPFQSMQTVFNMNAPVPPANEPETLKQQSQYQATYNQSFSSQPHQVEQTELQQDQLQTVVGTYHGSQDQPHQVPGNHQQPPQQNTGFPRSSQPYYNSRGVSRGGSRGARGLMNGYRGPANGFRGGYDGYRPSFSNTPNSGYSQSQFTAPRDYSGYQRDGYQQNFKRGSGQSGPRGAPRGRGGPPRPNRGMPQMNTQQVN

- binding [3]: binds
- binding [2]: binds
B2: PRKRA (protein, UniProt Q9WTX2 1-313)
chain: MSHSRHRAEAPPLQREDSGTFSLGKMITAKPGKTPIQVLHEYGMKTKNIPVYECERSDVQVHVPTFTFRVTVGDITCTGEGTSKKLAKHRAAEAAINILKANASICFAVPDPLMPDPSKQPKNQLNPIGSLQELAIHHGWRLPEYTLSQEGGPAHKREYTTICRLESFMETGKGASKKQAKRNAAEKFLAKFSNISPENHISLTNVVGHSLGCTWHSLRNSPGEKINLLKRSLLSLPNTDYIQLLSEIASEQGFNITYLDIEELSANGQYQCLAELSTSPITVCHGSGISCGNAQSDAAHNALQYLKIIAERK

- binding [2]: no binding
B3: CNOT4 E3 ubiquitin ligase (protein, UniProt Q8BT14 1-575)
chain: MSRSPDAKEDPVECPLCMEPLEIDDINFFPCTCGYQICRFCWHRIRTDENGLCPACRKPYPEDPAVYKPLSQEELQRIKNEKKQKQNERKQKISENRKHLASVRVVQKNLVFVVGLSQRLADPEVLKRPEYFGKFGKIHKVVINNSTSYAGSQGPSASAYVTYIRSEDALRAIQCVNNVVVDGRTLKASLGTTKYCSYFLKNMQCPKPDCMYLHELGDEAASFTKEEMQAGKHQEYEQKLLQELYKLNPNFLQLSTGSVDKNKNKVTPLQRYDTPIDKPSDSLSIGNGDNSQQISNSDTPSPPPGLSKSNPVIPISSSNHSARSPFEGAVTESQSLFSDNFRHPNPIPSGLPPFPSSPQTPSDWPTAPEPQSLFTSETIPVSSSTDWQAAFGFGSSKQPEDDLGFDPFDVTRKALADLIEKELSVQDQPSLSPTSLQNASSHTTTAKGPGSGFLHSAAPTNANSLNSTFSVLPQRFPQFQQHRAVYNSFGFPGQAARYPWMAFPRNSIMHLNHTANPTSNSNFLDLNLPPQHNTGLGGIPIAGEEEVKVSTMPLSASSHSLQQGQQPTSLHTTVA

- binding [2]: binds weakly
B4: TARBP2 (protein, UniProt P97473 1-365)
chain: MSEEDQGSGTTTGCGLPSIEQMLAANPGKTPISLLQEYGTRIGKTPVYDLLKAEGQAHQPNFTFRVTVGDTSCTGQGPSKKAAKHKAAEVALKHLKGGSMLEPALEDSSSFSLLDSSPPEDTPVVAAEAAAPVPSAVLTRSPPMEMQPPVSPQQSECNPVGALQELVVQKGWRLPEYMVTQESGPAHRKEFTMTCRVERFIEIGSGTSKKLAKRNAAAKMLLRVHTVPLDARDGNEAEPDDDHFSIGVSSRLDGLRNRGPGCTWDSLRNSVGEKILSLRSCSVGSLGALGSACCSVLSELSEEQAFHVSYLDIEELSLSGLCQCLVELSTQPATVCYGSATTREAARGDAAHRALQYLRIMAGSK

- binding [2]: binds
B5: G3BP2 (protein, UniProt P97379 1-482)
chain: MVMEKPSPLLVGREFVRQYYTLLNKAPEYLHRFYGRNSSYVHGGVDASGKPQEAVYGQNDIHHKVLSLNFSECHTKIRHVDAHATLSDGVVVQVMGLLSNSGQPERKFMQTFVLAPEGSVPNKFYVHNDMFRYEDEVFGDSEPELDEESEDEVEEEQEDRQPSPEPVQENANSAYYDAHPVTNGIEEPLEESSHEPEPEPESETKTEELKPQVEEKHLEELEEKSATPPPAEPASLPQEPPKAFSWASVTSKNLPPSGTVSSSGIPPHVKAPVSQPRVDAKPEVQSQPPRVREQRPRERPGFPPRGPRPGRGDMEQNDSDNRRIIRYPDSHQLFVGNLPHDIDENELKEFFMSFGNVVELRINTKGVGGKLPNFGFVVFDDSEPVQRILIAKPIMFRGEVRLNVEEKKTRAARERETRGGGDDRRDIRRNDRGPGGPRGIVGGGMMRDRDGRGPPPRGGMTQKLGSGRGTGQMEGRFTGQRR

From publication PMC10289378
